The list is a part of this screen's results and no random one: it gathers tests that were run many times, whatever their T/C, doses with no T/C, and many T/C values between a quarter and a half above the control. Further doses and runs are listed elsewhere. T/C is the treated group as % of the vehicle group. Some doses have a count of surviving animals in place of a T/C: the source files T/C as zero there, which appears to mark a toxic dose or a test without result, not a measured value. Some doses without a T/C left all or most animals alive at the check, yet need not have been tolerated: the source hardly ever lists a survival T/C far under the control, and the zero likely stands for such cases as well. Counts of survivors are from the toxicity check (mostly the fifth day) where no day follows; animals may have died later. Schedules are NCI's codes, read here as Q, the interval in days (D) or hours (H), X, the number of doses. Where survival is the endpoint, the PubChem record calls one and a half times the control and up active, and a quarter to a half above the control has no call in these data; cut-offs in other NCI protocols can differ.

This assay has as its system BDF1 mice, P388 leukemia ip, median survival T/C. Kind of assay: NCI In Vivo Anticancer Drug Screen. Data for tumor model P388 Leukemia (intraperitoneal) in B6D2F1 (BDF1) mice. Particulars: T/C endpoint: median survival time, higher T/C = longer survival. In a few lines:
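Survival ratio, drug arm over vehicle arm, in mice with a transplanted tumour.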

The mark [1] stands for this setting: dose: 12.5 mg/kg/injection, schedule: Q01DX009 (ip), vehicle: Klucel (hydroxypropylcellulose) (HPC).
[2] abbreviates: dose: 50.0 mg/kg/injection, schedule: Q01DX009 (ip), vehicle: Klucel (hydroxypropylcellulose) (HPC).
Setting [3] is: dose: 200.0 mg/kg/injection, schedule: Q01DX009 (ip), vehicle: saline with Tween-80.
Where [4] appears, read: dose: 100.0 mg/kg/injection, schedule: Q01DX009 (ip), vehicle: Klucel (hydroxypropylcellulose) (HPC).
Setting [5] is: dose: 200.0 mg/kg/injection, schedule: Q01DX009 (ip), vehicle: Klucel (hydroxypropylcellulose) (HPC).

For `COc1cc(CC#N)ccc1C`, the survivor count is given as 6 of 6 under setting [1] and 4 of 6 under setting [2].

For `CCOC(=O)C1(c2ccccc2)CCCN(C)CC1` (stereo not drawn), the survivor count runs as follows: (dose: 200.0 mg/kg/injection, schedule: Q04DX003 (ip), vehicle: saline) 1 of 6; (dose: 400.0 mg/kg/injection, schedule: Q04DX003 (ip), vehicle: saline) 1 of 6.

As for `[N-]=[N+]=C1C(=O)NN=C1c1ccccc1`, the survivor count (dose: 200.0 mg/kg/injection, schedule: Q04DX003 (ip), vehicle: Klucel (hydroxypropylcellulose) (HPC)) is on record as 2 of 6.

Take `N#Cc1ccc(S(N)(=O)=O)cc1`: the survivor count reads like this: (dose: 100.0 mg/kg/injection, schedule: Q01DX009 (ip), vehicle: saline with Tween-80) 6 of 6; under setting [3], 6 of 6.

In the case of `O=C1C=CC(=O)C(C2=CC(=O)C=CC2=O)=C1`, the survivor count by setting is: (dose: 100.0 mg/kg/injection, schedule: Q01DX001 (ip), vehicle: saline with Tween-80) 0 of 6; (dose: 200.0 mg/kg/injection, schedule: Q01DX001 (ip), vehicle: saline with Tween-80) 0 of 6; (dose: 400.0 mg/kg/injection, schedule: Q01DX001 (ip), vehicle: saline with Tween-80) 0 of 6.

As to `CCOC(=O)C(Cc1ccccc1Cl)(NC(C)=O)C(=O)OCC`, the T/C under setting [3] was 136 % of control.

On to `CNC(=O)C(C)(C)Br`, for which the survivor count (dose: 100.0 mg/kg/injection, schedule: Q04DX003 (ip), vehicle: saline) is 5 of 6.

In the case of `Cc1ccccc1NC(=O)Nc1ccccc1C`, the survivor count is, setting by setting: (dose: 1.5 mg/kg/injection, schedule: Q01DX009 (ip), vehicle: Klucel (hydroxypropylcellulose) (HPC)) 6 of 6; (dose: 3.0 mg/kg/injection, schedule: Q01DX009 (ip), vehicle: Klucel (hydroxypropylcellulose) (HPC)) 6 of 6; (dose: 6.0 mg/kg/injection, schedule: Q01DX009 (ip), vehicle: Klucel (hydroxypropylcellulose) (HPC)) 6 of 6; under setting [1], 6 of 6; (dose: 25.0 mg/kg/injection, schedule: Q01DX009 (ip), vehicle: Klucel (hydroxypropylcellulose) (HPC)) 6 of 6; under setting [2], 6 of 6. Moreover, the survivor count is 6 of 6 under setting [4]; 6 of 6 under setting [5]; 6 of 6 (dose: 400.0 mg/kg/injection, schedule: Q01DX009 (ip), vehicle: Klucel (hydroxypropylcellulose) (HPC)).

Regarding `COc1cc2c(c(OC)c1OC)-c1cc3c(cc1[C@@H](OC(C)=O)[C@@H]1COC(=O)[C@H]1C2)OCO3`, the T/C (dose: 5.3 mg/kg/injection, schedule: Q01DX009 (ip), vehicle: saline with Tween-80) is 135 % of control; the T/C (dose: 5.6 mg/kg/injection, schedule: Q01DX009 (ip), vehicle: saline) is 130 % of control; the T/C (dose: 8.0 mg/kg/injection, schedule: Q01DX009 (ip), vehicle: saline with Tween-80) is 140 % of control; the T/C (dose: 8.0 mg/kg/injection, schedule: Q01DX009 (ip), vehicle: saline) was 125 % of control; the T/C (dose: 12.0 mg/kg/injection, schedule: Q01DX009 (ip), vehicle: saline with Tween-80) is 125 % of control.

In the case of `CCOC(=O)C(NC(C)=O)(C(=O)OCC)C(C)C(=O)c1ccc(OC)c(OC)c1OCc1ccccc1` (stereo not drawn), the survivor count (dose: 100.0 mg/kg/injection, schedule: Q01DX009 (ip), vehicle: saline) is 6 of 6.

With `Fc1nc2nc(C(F)(F)F)[nH]c2nc1F`, the survivor count (dose: 200.0 mg/kg/injection, schedule: Q04DX003 (ip), vehicle: saline with Tween-80) is given as 2 of 6 and the survivor count (dose: 400.0 mg/kg/injection, schedule: Q04DX003 (ip), vehicle: saline with Tween-80) is 0 of 6.

Consider `Cc1ccccc1-n1c(C)nc2ccccc2c1=O`, for which the survivor count reads like this: under setting [2], 6 of 6; under setting [4], 6 of 6; under setting [5], 1 of 6; (dose: 400.0 mg/kg/injection, schedule: Q04DX003 (ip), vehicle: Klucel (hydroxypropylcellulose) (HPC)) 1 of 6.

Source of the values: PubChem BioAssay AID328 (DTP/NCI, 2004).
